Results: US12064408B2, “Compounds for the treatment of obesity and methods of use thereof” (The Children's Medical Center Corporation, priority 2012, dated 2024)
Some results were stated once for a whole list of compounds, not compound by compound.

Test system: HFD-fed obese mice
Assay: Celastrol derivatives i.p. to HFD-fed obese mice
Format: in vivo
Settings: 100 μg/kg/day for 25 days, similar potency to celastrol

## Cc1c(O)c(O)cc2c1C(SC[C@@H](N)C(=O)O)C=C1[C@@]2(C)CC[C@@]2(C)[C@@H]3C[C@](C)(C(=O)O)CC[C@]3(C)CC[C@]12C (some centres unmarked) [mCS4]
  body weight: decreased
  food intake: decreased
